Laboratory results taken from article PMC4868951.
These are yes or no findings as the source states them, for the method shown. Binding seen in cells or lysates may run through a third protein.

The chains behind the UniProt entries cited, without tags or fusion partners.
UniProt Q02748: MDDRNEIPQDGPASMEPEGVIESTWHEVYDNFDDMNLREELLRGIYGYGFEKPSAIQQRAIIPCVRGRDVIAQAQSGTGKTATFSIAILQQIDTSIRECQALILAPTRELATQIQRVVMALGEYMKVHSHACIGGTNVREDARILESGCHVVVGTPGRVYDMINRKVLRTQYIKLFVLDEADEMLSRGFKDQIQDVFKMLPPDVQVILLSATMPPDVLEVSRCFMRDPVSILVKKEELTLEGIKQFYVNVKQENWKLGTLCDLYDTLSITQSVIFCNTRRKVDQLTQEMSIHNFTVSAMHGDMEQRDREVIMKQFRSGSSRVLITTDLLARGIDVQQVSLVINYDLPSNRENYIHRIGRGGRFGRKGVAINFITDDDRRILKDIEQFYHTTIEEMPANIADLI
UniProt Q95V55: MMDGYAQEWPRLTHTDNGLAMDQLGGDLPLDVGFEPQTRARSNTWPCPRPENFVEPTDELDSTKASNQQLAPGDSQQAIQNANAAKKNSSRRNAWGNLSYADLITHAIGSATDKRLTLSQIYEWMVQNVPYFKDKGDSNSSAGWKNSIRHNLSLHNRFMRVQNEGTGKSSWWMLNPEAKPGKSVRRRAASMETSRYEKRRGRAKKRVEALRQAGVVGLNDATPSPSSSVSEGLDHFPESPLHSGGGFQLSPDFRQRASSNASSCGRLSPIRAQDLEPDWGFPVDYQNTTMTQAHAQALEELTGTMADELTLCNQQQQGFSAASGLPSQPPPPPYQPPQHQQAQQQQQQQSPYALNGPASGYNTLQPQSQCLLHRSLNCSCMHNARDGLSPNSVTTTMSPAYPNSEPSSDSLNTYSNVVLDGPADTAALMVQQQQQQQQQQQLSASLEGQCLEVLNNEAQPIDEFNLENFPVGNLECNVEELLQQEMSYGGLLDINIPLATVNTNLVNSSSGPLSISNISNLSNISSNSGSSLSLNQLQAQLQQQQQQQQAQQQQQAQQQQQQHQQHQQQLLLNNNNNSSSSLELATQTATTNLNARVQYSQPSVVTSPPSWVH

Biological target: FLAG-eIF4A (Drosophila) (UniProt Q02748)
Test: co-IP; FLAG-eIF4A immunoprecipitated from Kc167 lysates, with or without amino acids, DSP cross-linking, 0.3% CHAPS lysis buffer, FLAG M2 affinity gel 5-6 h at 4°C

**Q.** Which binding does the source give for Foxo (from UniProt Q95V55 1-613) here?
**A.** Its binding is “no binding”.
